Test results taken from publication PMC6777364.
Results are given in words; binding and its absence hold for the method and conditions named. In cells and extracts the contact can be indirect. Blank lines part the entries; values can stand above or below the molecule they belong to.

Protein sequences, listed by entry. Tags and fused reporters are not part of them. Lines headed by an entry give the natural chain unless they say otherwise; changes in a name come on top. Residues count along the entry.
UniProt Q9UL25: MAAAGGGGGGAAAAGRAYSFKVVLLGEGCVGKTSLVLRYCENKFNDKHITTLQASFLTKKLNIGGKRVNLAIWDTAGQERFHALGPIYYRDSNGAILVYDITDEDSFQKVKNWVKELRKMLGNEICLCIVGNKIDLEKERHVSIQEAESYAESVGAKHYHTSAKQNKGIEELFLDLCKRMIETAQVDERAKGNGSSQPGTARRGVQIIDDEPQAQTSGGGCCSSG
UniProt O43493, residues 22-437: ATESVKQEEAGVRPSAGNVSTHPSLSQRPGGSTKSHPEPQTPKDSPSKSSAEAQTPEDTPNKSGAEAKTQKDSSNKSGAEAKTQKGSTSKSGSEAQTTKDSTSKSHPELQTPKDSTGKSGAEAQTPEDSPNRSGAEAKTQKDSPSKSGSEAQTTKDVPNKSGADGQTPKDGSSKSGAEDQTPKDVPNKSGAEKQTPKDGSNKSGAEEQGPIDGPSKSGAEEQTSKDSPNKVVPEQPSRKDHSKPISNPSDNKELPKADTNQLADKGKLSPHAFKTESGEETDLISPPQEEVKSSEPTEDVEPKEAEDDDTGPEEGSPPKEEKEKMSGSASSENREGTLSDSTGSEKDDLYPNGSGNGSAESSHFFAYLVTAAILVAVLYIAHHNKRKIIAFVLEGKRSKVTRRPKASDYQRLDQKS
UniProt Q15363, residues 21-201: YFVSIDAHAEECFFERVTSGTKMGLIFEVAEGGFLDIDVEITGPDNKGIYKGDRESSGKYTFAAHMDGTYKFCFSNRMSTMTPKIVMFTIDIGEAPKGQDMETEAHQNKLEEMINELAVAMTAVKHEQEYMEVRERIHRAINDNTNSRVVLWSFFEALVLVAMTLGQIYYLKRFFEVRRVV

What was measured:
GFP:RAB21-WT = GFP:RAB21-WT (UniProt Q9UL25); test: co-IP; GFP:RAB21 immunoprecipitation blotted for TGN38 (Fig. S1B); cell line not given
GST:RAB21 = GST:RAB21 (UniProt Q9UL25); test: pull-down; GST:RAB21 beads incubated with HeLa cell lysate, 1 h at 4°C, MLB modified buffer (1% IGEPAL CA-630, 100 µM GTP, 25 mM HEPES, 150 mM NaCl, 20 mM MgCl2); blots; only the target purified
[1] = target: GST:RAB21-Q78L (GTP-bound) (UniProt Q9UL25); test: as above

binding (GFP:RAB21-WT): no binding
Molecule: TGN38 (from UniProt O43493 22-437)

binding (GST:RAB21): no binding
binding [1]: no binding
Molecule: TMED2 (from UniProt Q15363 21-201)

binding (GST:RAB21): no binding
binding [1]: no binding
B1: endogenous TMED10 (protein, UniProt P49755 32-219)
chain: ISFHLPINSRKCLREEIHKDLLVTGAYEISDQSGGAGGLRSHLKITDSAGHILYSKEDATKGKFAFTTEDYDMFEVCFESKGTGRIPDQLVILDMKHGVEAKNYEEIAKVEKLKPLEVELRRLEDLSESIVNDFAYMKKREEEMRDTNESTNTRVLYFSIFSMFCLIGLATWQVFYLRRFFKAKKLIE
